The subject of the test is P388 leukemia ip, CD2F1 mice, survival T/C. Kind of test: NCI In Vivo Anticancer Drug Screen. Data for tumor model P388 Leukemia (intraperitoneal) in CD2F1 (CDF1) mice. The conditions noted are these: T/C endpoint: median survival time, higher T/C = longer survival.
Setting [1] is: dose: 100.0 mg/kg/injection, schedule: Q01DX005 (ip), vehicle: saline with Tween-80.
[2] abbreviates: dose: 200.0 mg/kg/injection, schedule: Q01DX005 (ip), vehicle: saline with Tween-80.
Where [3] appears, read: dose: 100.0 mg/kg/injection, schedule: Q01DX009 (ip), vehicle: Klucel (hydroxypropylcellulose) (HPC).
Where [4] appears, read: dose: 200.0 mg/kg/injection, schedule: Q01DX009 (ip), vehicle: Klucel (hydroxypropylcellulose) (HPC).
Setting [5] is: dose: 50.0 mg/kg/injection, schedule: Q01DX005 (ip), vehicle: Klucel (hydroxypropylcellulose) (HPC).
Setting [6] is: dose: 100.0 mg/kg/injection, schedule: Q01DX005 (ip), vehicle: Klucel (hydroxypropylcellulose) (HPC).
Where [7] appears, read: dose: 200.0 mg/kg/injection, schedule: Q01DX005 (ip), vehicle: Klucel (hydroxypropylcellulose) (HPC).
The mark [8] stands for this setting: dose: 25.0 mg/kg/injection, schedule: Q01DX005 (ip), vehicle: Klucel (hydroxypropylcellulose) (HPC).
The mark [9] stands for this setting: dose: 25.0 mg/kg/injection, schedule: Q01DX009 (ip), vehicle: saline with Tween-80.

Each structure is given as a SMILES string. The list does not hold the whole screen: it is rich in T/C values a quarter to a half above the control, in often repeated tests (any T/C) and in doses without a T/C. Other doses and runs of a compound stand elsewhere. T/C is the treated group as % of the vehicle group. Some entries give survivors of the animals treated and no T/C: the source files T/C as zero there, which appears to mark a toxic dose or a test without result, not a measured value. Some doses without a T/C left all or most animals alive at the check, yet need not have been tolerated: survival well below the control is almost never listed, so the zero probably covers shortened survival too. Survivors were counted at the toxicity check, usually on the fifth day, unless a day is given; later deaths do not show. Schedule codes are those of the source, taken here to give the interval after Q, in days (D) or hours (H), and the number of doses after X. Some entries hold several experiments; their values stand side by side, smallest first. Where survival is the endpoint, this PubChem deposit counts one and a half times the control or more as active, and values a quarter to a half above the control carry no call in these data; other NCI protocols may use other cut-offs. Some T/C values carry the count of animals alive at the toxicity check (mostly the fifth day); without a count, all were alive then.

On to `COc1cc(C=Nc2cccc(C(=O)O)c2)ccc1N(CCCl)CCCl`, for which the T/C (dose: 25.0 mg/kg/injection, schedule: Q04DX003 (ip), vehicle: saline with Tween-80) was 140 % of control [5 of 6 alive]. In addition, the survivor count is listed as 1 of 6 (dose: 50.0 mg/kg/injection, schedule: Q01DX009 (ip), vehicle: saline); 2 of 6 (dose: 100.0 mg/kg/injection, schedule: Q01DX009 (ip), vehicle: saline); 6 of 6 (dose: 100.0 mg/kg/injection, schedule: Q04DX003 (ip), vehicle: saline with Tween-80); 2 of 6 (dose: 150.0 mg/kg/injection, schedule: Q04DX003 (ip), vehicle: saline with Tween-80).

Consider `Cc1cccc(C)c1Nc1nnc(-c2ccc(N(C)C)cc2)s1`, for which the survivor count (dose: 240.0 mg/kg/injection, schedule: Q01DX005 (ip), vehicle: saline with Tween-80) is 6 of 6.

In the case of `CC(=O)/C(=C\c1ccc(Cl)c(Cl)c1)C(=O)C(C)CN(C)C` (stereo not drawn), the T/C (dose: 25.0 mg/kg/injection, schedule: Q01DX005 (ip), vehicle: saline with Tween-80) was 127 % of control and the T/C under setting [1] is 130 % of control [4 of 6 alive]. The survivor count under setting [1] is recorded as 0 of 6 and the survivor count under setting [2] is reported as 0 of 6.

Consider `C=C(C)C12OC3(CCCCCCCCC)OC1C1C4OC4(CO)C(O)C4(O)C(=O)C(C)=CC4C1(O3)C(C)C2OC(C)=O` (stereo not drawn), for which the survivor count (dose: 400.0 micrograms/kg/injection, schedule: Q01DX009 (ip), vehicle: saline + alcohol) is given as 6 of 6.

Regarding `CCCCSc1ccc(NN=O)nc1`, for the setting “dose: 6.25 mg/kg/injection, schedule: Q01DX009 (ip), vehicle: water”, the T/C was 142 % of control. Besides, the survivor count (dose: 12.5 mg/kg/injection, schedule: Q01DX009 (ip), vehicle: water) is 6 of 6; the survivor count (dose: 25.0 mg/kg/injection, schedule: Q01DX009 (ip), vehicle: water) is 0 of 6 and 4 of 6; the survivor count (dose: 50.0 mg/kg/injection, schedule: Q01DX009 (ip), vehicle: water) is on record as 1 of 6.

Turning to `OCCOCCN1CCN(CCCN2c3ccccc3Sc3ccc(C(F)(F)F)cc32)CC1`, for the setting “dose: 50.0 mg/kg/injection, schedule: Q04DX003 (ip), vehicle: saline”, the T/C is 132 % of control. Further, the survivor count (dose: 100.0 mg/kg/injection, schedule: Q04DX003 (ip), vehicle: saline) is reported as 5 of 6.

Consider `Cc1cc(C)cc(C(=O)NCc2ccc[n+]([O-])c2)c1`, for which the survivor count (dose: 240.0 mg/kg/injection, schedule: Q01DX005 (ip), vehicle: saline) was 3 of 6.

As for `CC(Cl)CN(CC(C)Cl)c1ccc(-c2ccccc2)cc1` (stereo not drawn), the survivor count under setting [3] is on record as 6 of 6. In addition, under setting [4], the T/C is 139 [5 of 6 alive] and 147 % of control.

As to `C[N+](C)(C)CCNP(=O)(Oc1ccccc1)c1ccccc1` (stereo not drawn), the survivor count under setting [2] is reported as 2 of 6.

As for `CCCCCC(CN(C)C)/C(CC(NO)c1ccccc1)=N\O` (stereo not drawn), under setting [4], the survivor count was 4 of 6.

With `COc1ccc(NC(=O)CCC(=O)Oc2ccccc2)cc1`, for the setting “dose: 200.0 mg/kg/injection, schedule: Q01DX009 (ip), vehicle: saline with Tween-80”, the survivor count was 3 of 6.

For the compound `O.O.[Cu+2].[Cu+2].[NH-]CCC(=O)[N-]C(Cc1cnc[nH]1)C(=O)O.[NH-]CCC(=O)[N-]C(Cc1cnc[nH]1)C(=O)O` (stereo not drawn), the survivor count under setting [5] is on record as 0 of 5, the survivor count under setting [6] is 0 of 5 and the survivor count under setting [7] is 0 of 5.

With `CC1C2CC3OC(=O)C1C3C2` (stereo not drawn), the survivor count under setting [1] is 0 of 6 and the survivor count under setting [2] is reported as 0 of 6.

Take `CC1(C)CC(=O)C2OC21` (stereo not drawn): the survivor count (dose: 200.0 mg/kg/injection, schedule: Q04DX002 (ip), vehicle: saline) is given as 6 of 6.

As for `CCOc1nc(N)nc(C)c1N=Nc1ccc(Cl)cc1Cl`, the survivor count (dose: 240.0 mg/kg/injection, schedule: Q01DX005 (ip), vehicle: Klucel + Tween-80) is reported as 0 of 6.

Turning to `N=C(N)c1ccc(OCCCCCCOc2ccc(C(=N)N)cc2I)cc1`, the survivor count was 3 of 6 under setting [8]; 0 of 6 and 3 of 5 under setting [5]; 0 of 5 under setting [6]; 0 of 5 under setting [7].

For `CC1(C)CCC2(C(=O)O)CCC3(C)C(=CCC4C5(C)CC(O)C(O)C(C)(C(=O)O)C5CCC43C)C2C1` (stereo not drawn), the survivor count is given as 2 of 6 (dose: 16.25 mg/kg/injection, schedule: Q01DX005 (ip), vehicle: saline); 2 of 6 (dose: 32.5 mg/kg/injection, schedule: Q01DX005 (ip), vehicle: saline); 0 of 6 (dose: 65.0 mg/kg/injection, schedule: Q01DX005 (ip), vehicle: saline); 0 of 6 (dose: 130.0 mg/kg/injection, schedule: Q01DX005 (ip), vehicle: saline).

For `Cc1ccnc(NS(=O)(=O)c2ccc(N=CC3C(=O)N(c4ccccc4)N(c4ccccc4)C3=O)cc2)n1`, under setting [3], the survivor count is given as 6 of 6.

Take `C[n+]1c2ccccc2c(Cc2ccccc2)c2ccccc21`: the survivor count under setting [1] is on record as 1 of 6 and the survivor count under setting [2] is listed as 0 of 6.

As for `O=C(OCc1ccccc1)N1C[C@@H](Br)[C@H](Br)[C@H]1Cc1ccccc1`, the survivor count (dose: 400.0 mg/kg/injection, schedule: Q01DX001 (ip), vehicle: distilled water + alcohol) is recorded as 2 of 6.

As for `CC1=C(/C=C/C(C)=N/NC(N)=S)C(C)(C)CCC1`, the survivor count under setting [9] is 2 of 6.

As for `CCN1CCn2c(c(COC(=O)NC(C)C)c(COC(=O)NC(C)C)c2-c2ccc(Cl)c(Cl)c2)C1`, the T/C (dose: 50.0 mg/kg/injection, schedule: Q01DX009 (ip), vehicle: distilled water + Tween-80) was 133 % of control; the T/C (dose: 75.0 mg/kg/injection, schedule: Q01DX009 (ip), vehicle: distilled water + Tween-80) is 134 % of control; the T/C (dose: 100.0 mg/kg/injection, schedule: Q01DX009 (ip), vehicle: distilled water + Tween-80) was 145 % of control; the T/C (dose: 150.0 mg/kg/injection, schedule: Q01DX009 (ip), vehicle: distilled water + Tween-80) was 142 % of control [5 of 6 alive]. For the same compound, where the note is “dose: 300.0 mg/kg/injection, schedule: Q01DX009 (ip), vehicle: distilled water + Tween-80”, the survivor count was 3 of 6.

On to `CCO/C=C1/N=C(c2cc(OC)cc(OC)c2)OC1=O`, for which the survivor count (dose: 120.0 mg/kg/injection, schedule: Q01DX005 (ip), vehicle: saline with Tween-80) was 5 of 6.

`O=S1(=O)CC2(N3CCOCC3)C3CCC(C3)C21` (stereo not drawn): the survivor count (dose: 400.0 mg/kg/injection, schedule: Q04DX003 (ip), vehicle: saline with Tween-80) is 4 of 6 and 5 of 6.

For the compound `CCOC(=O)Nc1cc(NC/C(=N/O)c2ccc(Cl)cc2)c([N+](=O)[O-])c(N)n1`, the survivor count (dose: 200.0 mg/kg/injection, schedule: Q01DX001 (ip), vehicle: Klucel (hydroxypropylcellulose) (HPC)) is 6 of 6.

Regarding `O=C1C(=O)c2ccccc2C(O)=C1CCCc1ccc(C2CCCCC2)cc1`, the survivor count under setting [9] is given as 6 of 6.

Regarding `O=C(S)CC(O)(CCl)c1ccc(-c2ccccc2)cc1` (stereo not drawn), the survivor count (dose: 400.0 mg/kg/injection, schedule: Q04DX002 (ip), vehicle: Klucel (hydroxypropylcellulose) (HPC)) is recorded as 1 of 6.

Turning to `CCCOc1cc2c(cc1C(C)(C)c1ccccc1)OCO2`, under setting [2], the survivor count was 6 of 6.

`O=[N+]([O-])c1ccc(F)c(Cl)c1`: the survivor count (dose: 400.0 mg/kg/injection, schedule: Q04DX003 (ip), vehicle: other) is 1 of 6.

With `O=S1(=O)CS(=O)(=O)OCCCO1`, the T/C by setting is: (dose: 3.12 mg/kg/injection, schedule: Q01DX005 (ip), vehicle: Klucel (hydroxypropylcellulose) (HPC)) 136 % of control; (dose: 6.25 mg/kg/injection, schedule: Q01DX005 (ip), vehicle: Klucel (hydroxypropylcellulose) (HPC)) 136 % of control. For the same compound, the survivor count (dose: 12.5 mg/kg/injection, schedule: Q01DX005 (ip), vehicle: Klucel (hydroxypropylcellulose) (HPC)) is on record as 2 of 6; the survivor count under setting [8] was 0 of 6; the survivor count under setting [5] is reported as 0 of 5; the survivor count under setting [6] was 0 of 5; the survivor count under setting [7] is listed as 0 of 5.

As to `CC(C)(F)c1nc2cc3ccccc3cc2[nH]c1=O`, the survivor count (dose: 400.0 mg/kg/injection, schedule: Q01DX001 (ip), vehicle: saline with Tween-80) is 6 of 6.

(Values after PubChem BioAssay AID330 (DTP/NCI, 2004).)
